Assay results from article PMC8008189.
These are yes or no findings as the source states them, for the method shown. Some entries that bind do so weakly or less than the wild type.

Chains of the proteins cited; added tags and fusions are not shown. Lines headed by an entry give the natural chain unless they say otherwise; changes in a name come on top.
UniProt Q9UJY4: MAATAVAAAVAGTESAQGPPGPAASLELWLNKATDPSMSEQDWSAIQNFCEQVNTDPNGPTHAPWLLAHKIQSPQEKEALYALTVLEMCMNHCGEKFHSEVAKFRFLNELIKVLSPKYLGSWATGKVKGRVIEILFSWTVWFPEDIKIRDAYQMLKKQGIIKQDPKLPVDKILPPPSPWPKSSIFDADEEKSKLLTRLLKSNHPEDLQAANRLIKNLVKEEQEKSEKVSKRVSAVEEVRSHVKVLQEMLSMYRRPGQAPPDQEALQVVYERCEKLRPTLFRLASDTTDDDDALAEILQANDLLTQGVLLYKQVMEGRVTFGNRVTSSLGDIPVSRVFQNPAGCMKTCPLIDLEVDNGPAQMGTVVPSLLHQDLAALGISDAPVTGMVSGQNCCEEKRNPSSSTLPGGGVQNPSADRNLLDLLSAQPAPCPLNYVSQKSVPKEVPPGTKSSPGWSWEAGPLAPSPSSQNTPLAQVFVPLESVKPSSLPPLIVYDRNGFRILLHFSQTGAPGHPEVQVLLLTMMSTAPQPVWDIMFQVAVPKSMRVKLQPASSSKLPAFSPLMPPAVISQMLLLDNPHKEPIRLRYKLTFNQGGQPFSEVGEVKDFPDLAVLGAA
UniProt P05771: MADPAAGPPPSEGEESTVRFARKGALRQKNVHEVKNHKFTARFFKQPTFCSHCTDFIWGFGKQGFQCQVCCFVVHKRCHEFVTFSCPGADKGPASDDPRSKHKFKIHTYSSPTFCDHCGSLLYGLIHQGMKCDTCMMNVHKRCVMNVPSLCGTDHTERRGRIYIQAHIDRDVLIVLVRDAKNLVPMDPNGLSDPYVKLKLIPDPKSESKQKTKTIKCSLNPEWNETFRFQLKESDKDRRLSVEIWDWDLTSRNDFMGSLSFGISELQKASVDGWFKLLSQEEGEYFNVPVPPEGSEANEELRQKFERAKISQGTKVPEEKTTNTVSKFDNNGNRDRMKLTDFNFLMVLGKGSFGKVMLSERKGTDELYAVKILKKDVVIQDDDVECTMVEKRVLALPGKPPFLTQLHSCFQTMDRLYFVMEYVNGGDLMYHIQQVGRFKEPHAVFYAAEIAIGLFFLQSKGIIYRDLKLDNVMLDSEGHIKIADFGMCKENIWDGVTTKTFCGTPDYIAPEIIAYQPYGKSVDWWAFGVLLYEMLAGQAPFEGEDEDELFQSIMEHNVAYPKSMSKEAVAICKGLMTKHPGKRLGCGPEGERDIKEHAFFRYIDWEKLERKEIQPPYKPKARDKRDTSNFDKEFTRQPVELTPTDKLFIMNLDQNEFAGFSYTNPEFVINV

Biological target: GGA2-PKCβII fusion protein (human) (UniProt Q9UJY4+P05771)
Experiment: co-purification with immunoblot; GGA2-PKCβII fusion protein purified from HEK 293T cells; the purified material immunoblotted for chaperones

binding: binds
B1: Cdc37 (protein, UniProt Q16543 1-378)
chain: MVDYSVWDHIEVSDDEDETHPNIDTASLFRWRHQARVERMEQFQKEKEELDRGCRECKRKVAECQRKLKELEVAEGGKAELERLQAEAQQLRKEERSWEQKLEEMRKKEKSMPWNVDTLSKDGFSKSMVNTKPEKTEEDSEEVREQKHKTFVEKYEKQIKHFGMLRRWDDSQKYLSDNVHLVCEETANYLVIWCIDLEVEEKCALMEQVAHQTIVMQFILELAKSLKVDPRACFRQFFTKIKTADRQYMEGFNDELEAFKERVRGRAKLRIEKAMKEYEEEERKKRLGPGGLDPVEVYESLPEELQKCFDVKDVQMLQDAISKMDPTDAKYHMQRCIDSGLWVPNSKASEAKEGEEAGPGDPLLEAVPKTGDEKDVSV
